Measured values as given in PubChem BioAssay AID2517 (National Center for Advancing Translational Sciences (NCATS), 2010).
The whole screen tested about 350,000 compounds, of which about 1,200 (0.34%) were called active. This list was built around the results that the source calls inconclusive (neither active nor inactive); the mix of calls is not that of the screen. Calls come from the whole dose curve; as a rule, active = well fitted inhibition curve with a large enough effect; inconclusive = small, poorly fitted or top-dose-only effect; inactive = no such curve, though single readings can be large or run the other way. A potency beside an inconclusive call is a rough fit, not a confirmed value.

Sequences of proteins named here, by UniProt entry; tags and fusion partners are left off.
UniProt P27695, whole entry, looked up: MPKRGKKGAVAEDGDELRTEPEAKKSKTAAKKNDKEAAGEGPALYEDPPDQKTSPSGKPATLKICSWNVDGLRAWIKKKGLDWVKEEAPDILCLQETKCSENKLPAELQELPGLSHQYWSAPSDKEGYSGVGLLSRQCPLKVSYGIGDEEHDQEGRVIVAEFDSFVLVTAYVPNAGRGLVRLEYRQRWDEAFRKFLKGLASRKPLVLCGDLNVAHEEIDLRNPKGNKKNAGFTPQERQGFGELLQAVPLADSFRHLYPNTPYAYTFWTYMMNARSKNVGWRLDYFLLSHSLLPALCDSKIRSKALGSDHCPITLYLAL

Each compound was assayed against DNA repair nuclease/redox regulator APEX1 (Homo sapiens) (UniProt P27695) (assay: qHTS Assay for Inhibitors of the Human Apurinic/apyrimidinic Endonuclease 1 (APE1)). Details: recombinant APE1, TAMRA/BHQ-2 abasic DNA cleavage fluorescence; activity change, negative = inhibition: at 65.8 µM (top of the series).
Excerpt: The apurinic/apyrimidinic endonuclease APE1 is the primary mammalian enzyme responsible for the removal of abasic (or AP) sites in DNA and functions centrally in the base excision DNA repair (BER) pathway. […] Thus, targeting APE1 could improve the efficacy of current treatment paradigms by promoting selective sensitization or protection of diseased and normal cells, respectively.
Inhibition of APE1 activity was screened by utilizing double-stranded short substrate containing tetrahydrofuran (THF) abasic site labeled with rhodamine-type fluorophore (TAMRA) at the 5'-end and with non-fluorescent Black Hole Quencher-2 (BHQ-2) at the opposing 3'-end. An increase in the fluorescence intensity due to incision of the abasic site by APE1 was used to measure the enzyme activity.
NIH Chemical Genomics Center [NCGC]
NIH Molecular Libraries Probe Centers Network [MLPCN]
Assay Provider: David M. Wilson, III, National Institute on Aging, NIH
Three uL of enzyme solution (0.75 nM APE1 final concentration) was dispensed to 1536-well Greiner black solid bottom plates. […] The plates were incubated for 15 min at room temperature, and then 1 uL of substrate solution (50 nM final concentration of TAMRA/BHQ-2) was added to start the reaction. The plates were immediately transferred into ViewLux High-throughput CCD imager (Perkin-Elmer) in order to measure the reaction progress in kinetic mode (three reads every 60 seconds) using 525 nm excitation and 598 nm emission fluorescence protocol. The fluorescence intensity difference between the third and the first time points was used to compute reaction progress. Results were normalized to buffer only columns and NSC13755 positive controls and negative control DMSO treated wells.
Note: nearly all actives have a fitted effect of over 55% in size.
Potency is the fitted concentration of half-maximal effect.
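Throughout, for activity change, negative = inhibition: plate controls were vehicle for no effect and reference inhibitor for full effect.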

Row | SMILES | Potency | activity change, negative = inhibition
1 | Cc1ccc(C(=O)CNc2cccc([N+](=O)[O-])c2)cc1 | inconclusive: 35.5 µM [inhibitor, partial curve, poor fit] | 
2 | COc1cc(O)c(C(CCN2CCOCC2)c2ccc(N(C)C)cc2)c(OC)c1 (configuration not stated) | inconclusive: 35.5 µM [inhibitor, single point] | 
3 | CC(C)Cn1c(=S)[nH]c2cc(C(=O)O)ccc2c1=O |  | inactive: 10.4%
4 | COC(=O)c1sc2nc(SCC(=O)N(C)c3ccccc3)n(N)c(=O)c2c1C | inconclusive: 25.1 µM [inhibitor, partial curve, poor fit] | 
5 | COc1ccc(/C=C/c2cccc[n+]2C)c(O)c1 |  | inactive: 2.42%
6 | CNC(=S)N(CCc1c(C)[nH]c2ccc(C)cc12)Cc1cc(OC)c(OC)c(OC)c1 | inconclusive: 3.16 µM [inhibitor, single point] | 
7 | Cc1oc(-c2ccccc2)cc1C(=O)Nc1cccc(/C=C\C(=O)O)c1 | inconclusive: 25.1 µM [inhibitor, partial curve, poor fit] | 
8 | CC(=O)N1CCCc2cc(S(=O)(=O)N3CCCC(C(=O)NCc4ccc(C)cc4)C3)ccc21 (configuration not stated) |  | inactive: 6.58%
9 | Cc1ccc(C)c(N2CCN(c3ccncc3N)CC2)c1 | inconclusive: 4.47 µM [inhibitor, single point] | 
10 | O=C(Nc1ccc2[nH]ccc2c1)c1ccccc1 | inconclusive: 7.08 µM [inhibitor, single point] | 
11 | Cc1cc(C(F)(F)F)nn1CC(=O)NCc1cccs1 |  | inactive: 2.8%
12 | CCC(C)N1C(=O)/C(=C/c2c(NCCCOC(C)C)nc3c(C)cccn3c2=O)SC1=S (configuration not stated) | inconclusive: 0.0056 µM [inhibitor, full curve] | 
13 | O=c1[nH]c(=O)n([C@H]2C[C@H](O)[C@@H](CO)O2)cc1F | inconclusive: 7.08 µM [inhibitor, single point] | 
14 | CCOC(=O)CSc1nnc(-c2c[nH]c3ccccc23)n1CC | inconclusive: 44.7 µM [inhibitor, single point] | 
15 | COc1cc(C(=O)Nc2ccc(C)cn2)ccc1OCC(=O)N1CCOCC1 |  | inactive: 20.6%
16 | CC1=C(/C=C/C(C)=C/C=C/C(C)=C/C(=O)Nc2ccc(O)cc2)C(C)(C)CCC1 | inactive | 
17 | Cc1ccc(NC(=O)CC(C(=O)O)c2ccccc2)cc1 (configuration not stated) | inconclusive: 0.0631 µM [inhibitor, full curve, poor fit] | 
18 | COc1cc(C(=O)O[C@H]2C/C(C)=C/CC/C(C)=C/[C@@H](O)C2C(C)C)ccc1O (some centres not stated) | inconclusive: 28.2 µM [inhibitor, partial curve] | 
19 | O=C(CSc1nnc(-c2cccc(S(=O)(=O)N3CCCCC3)c2)o1)c1ccc[nH]1 | inconclusive: 44.7 µM [inhibitor, single point] | 
20 | Cc1cccc(C)c1OC1(c2ccccc2)OC(=O)c2ccccc21 (configuration not stated) | inconclusive: 0.0251 µM [inhibitor, full curve, poor fit] | 
21 | COc1cc2c(cc1OC)[C@@H](c1ccccc1)CN(C)CC2 |  | inactive: -1.58%
22 | COc1ccc(-c2nc(-c3ccccc3)c(Nc3c(C)cccc3C)o2)cc1 |  | inactive: 0.0355%
23 | CCCCOC(=O)CSC1=C(C#N)C(c2ccccc2OCC)C(C#N)C(=O)N1 (configuration not stated) |  | inactive: -5.7%

Row | SMILES | Potency | activity change, negative = inhibition
24 | CCCCCCCC#Cc1ccccc1/C=N/S(=O)C(C)(C)C (configuration not stated) | inconclusive: 8.91 µM [inhibitor, single point] | 
25 | Cc1ccccc1-c1nc(N2CCNCC2)c2ccccc2n1 | inconclusive: 28.2 µM [inhibitor, partial curve] | 
26 | CNc1nc(Nc2ccc(C)c(Cl)c2)nc(N)c1[N+](=O)[O-] | inconclusive: 39.8 µM [inhibitor, single point] | 
27 | COCCN(CCOC)S(=O)(=O)c1ccc(OC)cc1 | inconclusive: 44.7 µM [inhibitor, single point] | 
28 | O=c1cc(NCc2ccco2)[nH]c(=O)n1-c1ccc(Br)cc1 |  | inactive: -9.3%
29 | Cc1cc(O)c(Oc2cc(C)cc(O)c2O)c(O)c1 | active: 10 µM | 
30 | Cc1ccc2nc(-c3ccc(SCC(=O)Nc4ccc5c(c4)OCCO5)nc3)[nH]c2c1 |  | inactive: -8.48%
31 | CC(C)c1nc2oc3c(N4CCN(C)CC4)ncnc3c2c2c1CCC2 | inconclusive: 7.94 µM [inhibitor, single point] | 
32 | Cc1ccc(-n2nnnc2SCC(=O)N2CCc3ccccc3C2)cc1 | inconclusive: 0.112 µM [inhibitor, full curve, poor fit] | 
33 | COC/C=C/C1=CC2=CC(=O)C(C)(OC(=O)c3cnc4ccccc4n3)C(=O)C2=CN1CC1CC1 (configuration not stated) |  | inactive: -8.97% [at 12.4 µM]
34 | CCOC(=O)c1cc(-c2ccc(OC)cc2)nn1-c1ccccc1C(=O)O | active: 2.51 µM | 
35 | O=C(CCC(=O)N/N=C/c1ccc(Br)o1)N/N=C/c1ccc(Br)o1 | inconclusive: 26.7 µM [inhibitor, single point] | 
36 | O=c1ccc2c(-c3ccccc3S(=O)(=O)O)c3ccc(O)c(O)c3oc-2c1O | active: 0.0947 µM | 
37 | COC(=O)C1=C(C(=O)OC)[C@@H]2N(Cc3ccccc3)c3ccccc3[C@@]23C[C@@H](C(=O)OC)N(C(=O)NCc2ccccc2)C3=C1 |  | inactive: -6.32%
38 | COc1cccc2c1C(=O)c1c(O)c3c(c(O)c1C2=O)C[C@@](O)(C(=O)CO)C[C@@H]3O[C@@H]1C[C@H](N)[C@H](O)[C@H](C)O1 | active: 14.1 µM | 
39 | O=C1CN(C(=O)COC(=O)c2ccc([N+](=O)[O-])s2)c2ccccc2N1 | inconclusive: 33.6 µM [inhibitor, single point] | 
40 | O=C(N/N=C\c1cc(Br)c(Br)o1)C1COc2ccccc2O1 (configuration not stated) | inconclusive: 31.6 µM [inhibitor, single point] | 
41 | Cc1cccc(C)c1NC(=O)CN(C)C(=O)c1cccc(-n2cccc2)c1 | inconclusive: 11.9 µM [inhibitor, partial curve] | 
42 | CC(C)N1CCc2c(sc(NC(=O)c3ccc4ccccc4c3)c2C(N)=O)C1 |  | inactive: -7.22%
43 | O=C(CSc1nc2scc(-c3ccco3)c2c(=O)n1-c1ccccc1)NCC1CCCO1 (configuration not stated) | inconclusive: 39.8 µM [inhibitor, single point] | 
44 | Cc1ccccc1OCc1nnc(SCC(=O)N2CCc3ccccc32)n1C | inconclusive: 11.2 µM [inhibitor, partial curve] | 
45 | FC(F)(F)c1cccc(N2CCC(N=CN3CCCCCC3)=N2)c1 |  | inactive: -5.93%
46 | Cc1ccc(-c2ccc(C3C(C#N)=C(N)Oc4n[nH]c(C)c43)o2)cc1 (configuration not stated) | inconclusive: 28.2 µM [inhibitor, partial curve] | 

Row | SMILES | Potency | activity change, negative = inhibition
47 | CCOC(=O)CC(=O)CSc1nc2ccc(C)cc2cc1C#N | inconclusive: 39.8 µM [inhibitor, single point] | 
48 | O=C(OCC(=O)c1ccc[nH]1)c1ccc(S(=O)(=O)N2CCCCCC2)cc1 | inconclusive: 35.5 µM [inhibitor, partial curve, poor fit] | 
49 | CCc1ccc(/C=C2/SC(=S)N(CCC(=O)Nc3ccc(C(=O)O)cc3)C2=O)cc1 | inconclusive: 8.44 µM [inhibitor, single point] | 
50 | NS(=O)(=O)c1ccc(CCNC(=O)c2ccc(C#CC3(O)CCCCC3)cc2)cc1 | inconclusive: 1 µM [inhibitor, single point] | 
51 | O=[N+]([O-])c1ccc(C=Nc2ccc(Cl)c([N+](=O)[O-])c2)s1 | inconclusive: 28.2 µM [inhibitor, single point] | 
52 | COc1ccc(NC(=O)CN2C(=O)/C(=C3\SC(=S)N(C4CCS(=O)(=O)C4)C3=O)c3ccccc32)cc1 (configuration not stated) | inconclusive: 14.1 µM [inhibitor, partial curve] | 
53 | O=C1OC2(O)C3C4C=CC(C4)C3C(=O)N2c2ccccc21 (configuration not stated) | inconclusive: 31.6 µM [inhibitor, single point] | 
54 | COc1ccc(NC(=O)/C=C/c2cc(Br)ccc2OC)cc1 |  | inactive: 7.61%
55 | COc1ccc(C2CC(c3ccccc3)Nc3nc(N)nn32)cc1 (configuration not stated) | inconclusive: 35.5 µM [inhibitor, single point] | 
56 | Cc1ccccc1N1CCN(C2CCCN(C(=O)CCn3cnnn3)C2)CC1 (configuration not stated) |  | inactive: 4.26%
57 | COc1ccc(-n2c(=O)cnc3cnc(OC)nc32)cc1 |  | inactive: -8.27%
58 | CN(c1ccccc1)c1nc(N)c([N+](=O)[O-])c(N2CCCCC2)n1 | inconclusive: 8.91 µM [inhibitor, single point] | 
59 | Cc1cccc(N(C)S(=O)(=O)c2ccc3c(c2)NC(=O)CC(=O)N3)c1 | inconclusive: 1.58 µM [inhibitor, full curve, poor fit] | 
60 | O=C(/C=C1\SC(=O)NC1=O)Nc1ccc(F)cc1 | inconclusive: 22.4 µM [inhibitor, partial curve] | 
61 | CCN1CCN(C(=S)Nc2ccsc2C(=O)OC)CC1 | inconclusive: 0.0032 µM [inhibitor, full curve, poor fit] | 
62 | CC(C)CC1C2C(=O)N(c3ccccc3)C(=O)C2ON1c1ccccc1 (configuration not stated) | inconclusive: 8.91 µM [inhibitor, single point] | 
63 | COc1ccc(/C=C(\NC(=O)c2ccc(OCC(C)C)cc2)C(=O)OCc2ccco2)cc1 | inconclusive: 20 µM [inhibitor, partial curve, poor fit] | 
64 | CC(C)C(c1nnnn1C1CCCC1)N1CCCCC1 (configuration not stated) | inconclusive: 3.16 µM [inhibitor, single point] | 
65 | Cc1ccc(-n2nc(C)c3c2OC(N)=C(C#N)C3c2ccoc2)cc1 (configuration not stated) | inconclusive: 10 µM [inhibitor, partial curve] | 
66 | CCOc1ccc(C(=O)OCC(=O)NCc2ccco2)cc1OCC | inconclusive: 28.2 µM [inhibitor, partial curve] | 
67 | O=C(CCCl)Nc1ccc(S(=O)(=O)NCc2ccco2)cc1 | inconclusive: 28.2 µM [inhibitor, single point] | 

3 entries from above, arranged by number of heavy atoms, low to high:
Row | SMILES | Potency | activity change, negative = inhibition
40 | O=C(N/N=C\c1cc(Br)c(Br)o1)C1COc2ccccc2O1 (configuration not stated) | inconclusive: 31.6 µM [inhibitor, single point] | 
19 | O=C(CSc1nnc(-c2cccc(S(=O)(=O)N3CCCCC3)c2)o1)c1ccc[nH]1 | inconclusive: 44.7 µM [inhibitor, single point] | 
43 | O=C(CSc1nc2scc(-c3ccco3)c2c(=O)n1-c1ccccc1)NCC1CCCO1 (configuration not stated) | inconclusive: 39.8 µM [inhibitor, single point] | 
